Assay results from article PMC9038911.

Legend:
[1] = molecular target: T1, signal peptide-truncated SsPINE1 (SsPINE1^ΔSP), yeast two-hybrid fusion (Sclerotinia sclerotiorum); assay: two-hybrid; targeted assay, GAL4-based Matchmaker Gold; pGADT7 and pGBKT7 constructs co-transformed in pairs into yeast strain Gold; SD/-His,-Ade,-Leu,-Trp with aureobasidin A, X-α-gal staining; SsPINE1 and AtPGIP1 each as bait and as prey
T1 sequence: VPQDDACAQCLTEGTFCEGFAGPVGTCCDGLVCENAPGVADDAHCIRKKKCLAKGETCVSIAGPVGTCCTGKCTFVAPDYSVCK

[2] = molecular target: T2, AtPGIP1-3xFlag (Arabidopsis thaliana) (UniProt Q9M5J9); assay: condition: only with 10 μg purified SsPINE1-GFP added to the lysate; co-IP; modified co-IP: purified competing protein from yeast (0, 100 ng and 10 μg) added to leaf lysate of co-infiltrated leaves, 30 min, then Flag IP and anti-GFP blot; pair co-expressed in the leaves
T2 sequence: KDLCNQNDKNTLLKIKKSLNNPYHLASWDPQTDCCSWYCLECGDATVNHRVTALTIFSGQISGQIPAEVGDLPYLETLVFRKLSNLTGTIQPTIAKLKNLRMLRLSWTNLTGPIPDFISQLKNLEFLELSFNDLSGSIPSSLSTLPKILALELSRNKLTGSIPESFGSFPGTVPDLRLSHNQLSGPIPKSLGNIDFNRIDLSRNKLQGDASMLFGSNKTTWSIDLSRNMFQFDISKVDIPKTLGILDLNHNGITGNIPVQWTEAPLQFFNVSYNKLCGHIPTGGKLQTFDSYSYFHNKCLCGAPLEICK

[3] = molecular target: T2, AtPGIP1-3xFlag (Arabidopsis thaliana); assay: co-IP; GFP- and 3xFlag-tagged constructs co-infiltrated in N. benthamiana; leaf lysate 48 h after infiltration; anti-Flag agarose (Flag IP) or anti-GFP agarose (GFP IP); Western blot with anti-GFP or anti-Flag
[4] = molecular target: T2, AtPGIP1-3xFlag (Arabidopsis thaliana); assay: co-IP; modified co-IP: purified competing protein from yeast (0, 100 ng and 10 μg) added to leaf lysate of co-infiltrated leaves, 30 min, then Flag IP and anti-GFP blot; pair co-expressed in the leaves
[5] = molecular target: SsPG1-GFP (expressed in N. benthamiana) (Sclerotinia sclerotiorum); assay: co-IP; GFP- and 3xFlag-tagged constructs co-infiltrated in N. benthamiana; leaf lysate 48 h after infiltration; anti-Flag agarose (Flag IP) or anti-GFP agarose (GFP IP); Western blot with anti-GFP or anti-Flag

AT2G35790, yeast two-hybrid prey (Arabidopsis thaliana)
binding [1]: no binding

SsPG1-GFP (expressed in N. benthamiana) (Sclerotinia sclerotiorum) (enzyme)
binding [2]: no binding | binding [3]: binds | binding [4]: binds

B1: AtPGIP1-3xFlag (protein, UniProt Q9M5J9 22-330)
chain: KDLCNQNDKNTLLKIKKSLNNPYHLASWDPQTDCCSWYCLECGDATVNHRVTALTIFSGQISGQIPAEVGDLPYLETLVFRKLSNLTGTIQPTIAKLKNLRMLRLSWTNLTGPIPDFISQLKNLEFLELSFNDLSGSIPSSLSTLPKILALELSRNKLTGSIPESFGSFPGTVPDLRLSHNQLSGPIPKSLGNIDFNRIDLSRNKLQGDASMLFGSNKTTWSIDLSRNMFQFDISKVDIPKTLGILDLNHNGITGNIPVQWTEAPLQFFNVSYNKLCGHIPTGGKLQTFDSYSYFHNKCLCGAPLEICK
binding [5]: binds

These are yes or no findings as the source states them, for the method shown. For some assays here: In cells and extracts the contact can be indirect. For some assays here: A result given as binding can be weak or reduced; the word gives no strength. Tags and fused reporters may be left off the sequences shown.
